{
  "sequences": {"note": "The chains behind the UniProt entries cited, without tags or fusion partners. Where a name states a change or a piece, a line headed by the entry shows the natural chain unless it says otherwise.", "UniProt Q8LPR5": "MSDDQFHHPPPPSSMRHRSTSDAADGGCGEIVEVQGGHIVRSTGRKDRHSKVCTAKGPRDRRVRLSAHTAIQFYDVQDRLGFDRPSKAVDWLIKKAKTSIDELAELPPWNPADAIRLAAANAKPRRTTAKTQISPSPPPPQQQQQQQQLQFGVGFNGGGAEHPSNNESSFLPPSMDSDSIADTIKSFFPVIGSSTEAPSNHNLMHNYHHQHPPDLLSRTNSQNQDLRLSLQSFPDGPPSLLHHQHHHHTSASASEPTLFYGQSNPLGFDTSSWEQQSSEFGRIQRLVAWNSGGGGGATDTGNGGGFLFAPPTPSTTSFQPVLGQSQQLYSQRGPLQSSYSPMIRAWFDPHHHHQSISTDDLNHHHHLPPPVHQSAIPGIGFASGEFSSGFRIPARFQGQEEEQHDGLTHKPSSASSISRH"},
  "source": "paper PMC6386416",
  "biological_target": "MBP-TCP4D (MBP-fused TCP4 domain) (Arabidopsis thaliana) (UniProt Q8LPR5)",
  "test": "EMSA",
  "settings": "250-fold unlabeled competitor, anti-MBP supershift; recombinant protein; protein details: MBP",
  "note": "Construct, isoform or probe ends are uncertain for at least one entry. At least one verdict was read from the data and is not stated in words by the source.",
  "data": [
    {"sequence": "CGTGTGGGTGGCCCATCATCAT (double strand) [HAT2-BS3]", "values": [
      {"measurement": "binding result", "result": "binds"}
    ]},
    {"sequence": "CGTTGGTTGGTCCACAACTTTG (double strand) [HAT2-BS1]", "values": [
      {"measurement": "binding result", "result": "binds"}
    ]},
    {"sequence": "TTCTCAGAGTGGTCCGGACATT (double strand) [HAT2-BS2]", "values": [
      {"measurement": "binding result", "result": "binds"}
    ]}
  ]
}
